Here are results for one sequence from patent publication US20090281296.

By UniProt entry, the sequences of proteins in these tests, tags left out. Where a name states a change or a piece, a line headed by the entry shows the natural chain unless it says otherwise.
UniProt Q9UBU3: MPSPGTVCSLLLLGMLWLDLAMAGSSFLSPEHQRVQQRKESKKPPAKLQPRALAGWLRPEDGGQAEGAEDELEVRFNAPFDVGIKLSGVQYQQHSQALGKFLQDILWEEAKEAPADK

The exact form of at least one protein or probe is not confirmed.

The series addresses Ghrelin (Homo sapiens or Rattus norvegicus) (UniProt Q9UBU3). The series is described as follows: activity in cells. To be noted: L-RNA (Spiegelmer); 5'-aminohexyl linked hydroxyethyl starch (HES); inhibition of Ca2+ release induced by 5 nM Ghrelin in CHO cells expressing human GHS-R1a; preincubation 15-60 min at RT or 37 C in UltraCHO with 5 mM probenecid; purified recombinant protein; mirror-image nucleic acid; variant of SOT-B11 Spiegelmer (non-HESylated).

What is called IC50 is the concentration at which inhibition is half-maximal. For the sequence “CGUGUGAGGCAAUAAAACUUAAGUCCGAAGGUAACCAAUCCUACACG [SOT-B11 Spiegelmer 5'-HESylated]”, the half-inhibitory concentration (IC50) worked out at 6.5 nM.
